# About 13,000 (3.2%) of roughly 400,000 compounds were called active. Inconclusive results, whose numbers are uncertain, are shown with a selection of clear calls. Calls follow the shape of the dose curve; as a rule, active = well fitted cell-killing curve with a large enough effect; inconclusive = small, poorly fitted or top-dose-only effect, or effect the other way; inactive = flat fitted curve, though single readings scatter. Where the call is inconclusive, the potency comes from a doubtful curve fit.
# Experiment: qHTS assay for MDR1-selective chemotherapeutics: Primary screen using the drug-selected MDR subline cells KB-V1; also: nearly all actives have a fitted effect of over 60% in size
# Conditions: KB-V1 MDR cells viability, CellTiter-Glo, 72 h; series mostly up to 46.1 µM
# Method in brief: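 Following 72 h at 37 degrees C with compound, KB-V1 cell viability was read by CellTiter-Glo luminescence, medium being phenol-red-free DMEM plus 10% FBS; concentration-response parameters came from normalized, curve-fitted qHTS data.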
# Potency is read from the fitted curve at half-maximal effect.
row,SMILES,Potency
1,Cc1ccc(S(=O)(=O)Nc2cccc(C(=O)NCC3CCCO3)c2)cc1F (centres undefined),"inconclusive: 20.6 µM [cytotoxic, single point]"
2,C=CCn1c(SCC(=O)Nc2ccc(C(=O)O)cc2)nc2sc(C)c(C)c2c1=O,"inconclusive: 29.1 µM [rising, single point]"
3,Cc1ccc(C(=O)N/C(=C\c2ccc(-c3cccc([N+](=O)[O-])c3)o2)C(=O)NCCCN2CCOCC2)cc1,"inconclusive: 25.9 µM [cytotoxic, partial curve, poor fit]"
4,Oc1ccc(Cl)cc1CNc1cnc2ccccc2c1,"inconclusive: 23.1 µM [cytotoxic, single point]"
5,COc1ccc(C(=O)Nc2ccc(S(=O)(=O)Nc3nccnc3OC)cc2)cc1,active: 18.4 µM
6,CS(=O)(=O)c1ccc(C(=O)OCC(=O)NCC2CCCO2)cc1[N+](=O)[O-] (centres undefined),inactive
7,O=C(COc1cc(F)ccc1[N+](=O)[O-])Nc1ccc(N2CCCCC2)cc1,"inconclusive: 14.6 µM [cytotoxic, single point]"
8,Cn1cccc1C(=S)N=P(C1CCCCC1)(N1CCOCC1)N1CCOCC1,"inconclusive: 20.6 µM [cytotoxic, single point]"
9,CCc1cccc(CC)c1NC(=O)COC(=O)c1ccc(F)c(S(=O)(=O)N(CC)CC)c1,"inconclusive: 0.0366 µM [rising, full curve]"
10,C#CCOCCOCCOCCNc1nc(N2CCN(C(=O)C([C@@H](C)CC)n3cc(C(N)CO)nn3)CC2)nc(N2CCN(C(=O)C([C@@H](C)CC)n3cc(C(N)COC(=O)C(F)(F)F)nn3)CC2)n1 (some centres undefined),"inconclusive: 29.1 µM [rising, partial curve, poor fit]"
11,CCc1nc(SCc2ccccc2C)n[nH]1,inactive
12,CC1(c2nnc(-c3ccc(Cl)cc3)o2)CC(c2ccc([N+](=O)[O-])cc2)=NO1 (centres undefined),"inconclusive: 14.6 µM [rising, single point]"
13,COc1ccc(C(CNC(=O)CNC(=O)c2cccc(Cl)c2)N2CCCC2)cc1 (centres undefined),"inconclusive: 23.1 µM [cytotoxic, single point]"
14,C=CCn1nc(-c2ccccc2)cc1C(=O)OCC,inactive
15,CCC(CC)C(=O)N(C)c1c(C)nc2c(OCC3CCCCC3)cccn12,inactive
16,O=S(=O)(c1ccc(Cl)cc1Cl)n1ccnc1,"inconclusive: 29.1 µM [rising, single point]"
17,CC(C)Cc1ccc(C(C)C(=O)Nc2ccc(O)cc2)cc1 (centres undefined),"inconclusive: 5.8 µM [cytotoxic, full curve]"
18,CCOC(=O)C1=CCC(c2cccs2)N(S(=O)(=O)c2ccc(C)cc2)C1 (centres undefined),inactive
19,O=C([C@@H]1CC=C[C@@H]2CCN(C3CC3)C(=O)[C@@H]21)N1CCOCC1,inactive
20,COC(CNC(=O)c1ccc2nc(-c3ccccc3)c(-c3ccccc3)nc2c1)OC,"inconclusive: 9.2 µM [cytotoxic, partial curve, poor fit]"
21,O=C(NCCc1c[nH]c2ccccc12)C1CCC(Cn2c(=S)[nH]c3ccccc3c2=O)CC1 (centres undefined),active: 14.6 µM
22,C=CCn1c(=O)[nH]c(=O)c2c(N)c(C(=O)c3ccc(OC)cc3)sc21,inactive
23,COC(=O)[C@@]1(Cc2ccc(OC)cc2)[C@H]2c3cc(C(=O)N4CCCC4)n(Cc4ccc(OC(F)(F)F)cc4)c3C[C@H]2CN1C(=O)c1ccccc1,active: 20.6 µM

# Entries shown so far that have nitrogen in an aromatic ring, in the order listed:
row,SMILES,Potency
2,C=CCn1c(SCC(=O)Nc2ccc(C(=O)O)cc2)nc2sc(C)c(C)c2c1=O,"inconclusive: 29.1 µM [rising, single point]"
4,Oc1ccc(Cl)cc1CNc1cnc2ccccc2c1,"inconclusive: 23.1 µM [cytotoxic, single point]"
5,COc1ccc(C(=O)Nc2ccc(S(=O)(=O)Nc3nccnc3OC)cc2)cc1,active: 18.4 µM
8,Cn1cccc1C(=S)N=P(C1CCCCC1)(N1CCOCC1)N1CCOCC1,"inconclusive: 20.6 µM [cytotoxic, single point]"
10,C#CCOCCOCCOCCNc1nc(N2CCN(C(=O)C([C@@H](C)CC)n3cc(C(N)CO)nn3)CC2)nc(N2CCN(C(=O)C([C@@H](C)CC)n3cc(C(N)COC(=O)C(F)(F)F)nn3)CC2)n1 (some centres undefined),"inconclusive: 29.1 µM [rising, partial curve, poor fit]"
11,CCc1nc(SCc2ccccc2C)n[nH]1,inactive
12,CC1(c2nnc(-c3ccc(Cl)cc3)o2)CC(c2ccc([N+](=O)[O-])cc2)=NO1 (centres undefined),"inconclusive: 14.6 µM [rising, single point]"
14,C=CCn1nc(-c2ccccc2)cc1C(=O)OCC,inactive
15,CCC(CC)C(=O)N(C)c1c(C)nc2c(OCC3CCCCC3)cccn12,inactive
16,O=S(=O)(c1ccc(Cl)cc1Cl)n1ccnc1,"inconclusive: 29.1 µM [rising, single point]"
20,COC(CNC(=O)c1ccc2nc(-c3ccccc3)c(-c3ccccc3)nc2c1)OC,"inconclusive: 9.2 µM [cytotoxic, partial curve, poor fit]"
21,O=C(NCCc1c[nH]c2ccccc12)C1CCC(Cn2c(=S)[nH]c3ccccc3c2=O)CC1 (centres undefined),active: 14.6 µM
22,C=CCn1c(=O)[nH]c(=O)c2c(N)c(C(=O)c3ccc(OC)cc3)sc21,inactive
23,COC(=O)[C@@]1(Cc2ccc(OC)cc2)[C@H]2c3cc(C(=O)N4CCCC4)n(Cc4ccc(OC(F)(F)F)cc4)c3C[C@H]2CN1C(=O)c1ccccc1,active: 20.6 µM

# Carrying on:

row,SMILES,Potency
1,COc1ccccc1NC(=O)CN(c1ccc(C)cc1)S(=O)(=O)c1c(C)n[nH]c1C,"inconclusive: 23.1 µM [cytotoxic, partial curve, poor fit]"
2,COC(=O)c1ccc(Cn2cc(C(F)(F)F)ccc2=O)cc1,inactive
3,COc1cc(C(=O)NC(=S)Nc2ccc3c(c2)C(=O)N(C)C3=O)cc(OC)c1OC,"inconclusive: 4.11 µM [cytotoxic, partial curve]"
4,CC1CCN(CCNC(=O)C2CCCN(c3ncnc4c3nc3n4CCCCC3)C2)CC1 (centres undefined),inactive
5,c1ccc2c(Nc3nc(N4CCOCC4)c4ccccc4n3)cccc2c1,"inconclusive: 6.51 µM [cytotoxic, partial curve]"
6,CC(=NCc1ccccc1)c1ccccc1O,"inconclusive: 18.4 µM [rising, partial curve, poor fit]"
7,Cc1nnc(N/N=C/c2cc(C)n(-c3ccc(F)cc3)c2C)n1N,inactive
8,Cc1ccc2nc(Nc3nc(C)cc(-c4ccccc4)n3)[nH]c(=O)c2c1,"inconclusive: 29.1 µM [cytotoxic, single point]"
9,CC1CCN(c2c(NCc3ccc(C(=O)NCc4ccccc4)cc3)c(=O)c2=O)CC1,"inconclusive: 18.4 µM [rising, partial curve, poor fit]"
10,O=C(Nc1nc(-c2ccccc2)cs1)c1cccs1,"inconclusive: 16.4 µM [cytotoxic, single point]"
11,O=C(COC(=O)c1cc(F)c(F)cc1Cl)NC1CC1,"inconclusive: 29.1 µM [rising, single point]"
12,CCOC(=O)c1cc(C(=O)NNC(=O)c2cccc([N+](=O)[O-])c2)c(C)nc1C,"inconclusive: 13 µM [rising, partial curve, poor fit]"
13,COc1cc(-c2ncc3ccccn23)cc(OC)c1OC,active: 14.6 µM
14,C=CC[n+]1cccc2cccc(O)c21,inactive
15,COc1ccc(-c2noc(C)c2-c2ccc3ccccc3n2)c(O)c1,"inconclusive: 8.2 µM [cytotoxic, partial curve]"
16,COc1ccccc1C1CCN(C(=O)c2cnn(-c3ccccc3)c2C)CC1,"inconclusive: 10.3 µM [cytotoxic, partial curve, poor fit]"
17,COCCNC(=O)c1c(N)n(/N=C/c2cccs2)c2nc3ccccc3nc12,inactive
18,O=C1CCN(CCc2ccccc2)CCN1CCOc1ccccc1,"inconclusive: 7.31 µM [cytotoxic, partial curve]"
19,CCOC(=O)c1cccc(NC(=O)COc2ccc([N+](=O)[O-])cc2)c1,active: 23.1 µM
20,Cc1nn(C)cc1C(=O)Nc1ccc2c(c1)OCCO2,inactive
21,C=CC(C)N1C(=O)S/C(=C\c2ccc(N3CCOCC3)cc2C)C1=O (centres undefined),"inconclusive: 14.6 µM [cytotoxic, partial curve]"
22,O=C(CN1C(=O)S/C(=C\c2ccccc2)C1=O)NC1CCS(=O)(=O)C1 (centres undefined),inactive
23,Cc1ccc(-c2onc3ccc(Cl)cc23)cc1,inactive

# Two successive compounds already listed, for reference:
row,SMILES,Potency
12,CCOC(=O)c1cc(C(=O)NNC(=O)c2cccc([N+](=O)[O-])c2)c(C)nc1C,"inconclusive: 13 µM [rising, partial curve, poor fit]"
13,COc1cc(-c2ncc3ccccn23)cc(OC)c1OC,active: 14.6 µM

# The listing continues.

row,SMILES,Potency
1,C[C@H]1CN([C@@H](C)CO)C(=O)c2cc(Br)cnc2O[C@@H]1CN(C)S(=O)(=O)c1cn(C)cn1,"inconclusive: 20.6 µM [cytotoxic, single point]"
2,CCCCCCN1CCN(C2CN(Cc3cn(Cc4ccc(F)cc4)nn3)S(=O)(=O)C2)CC1 (centres undefined),inactive
3,Cc1ccc(N2C(=O)N(CC(=O)c3cc(C)ccc3C)C(=O)C2C)cc1 (centres undefined),active: 16.4 µM
4,CCOCCCNS(=O)(=O)c1ccc(NC(=O)c2ccccc2)cc1,"inconclusive: 2.91 µM [cytotoxic, full curve, poor fit]"
5,Cn1c(=O)c2c(nc(NCCNC(=O)c3ccco3)n2Cc2ccc(F)cc2)n(C)c1=O,"inconclusive: 16.4 µM [cytotoxic, partial curve]"
6,COc1cccc(/C=C2\N=C(SC)SC2=O)c1OC,inactive
7,CCOc1cc(C(=O)OCC(=O)NC(C)c2ccccc2)ccc1OCC(=O)N1CCOCC1 (centres undefined),"inconclusive: 0.259 µM [rising, full curve, poor fit]"
8,CS(=O)(=O)c1ccc(-c2cccc(NC(=O)COc3ccccc3)c2)nn1,"inconclusive: 25.9 µM [rising, single point]"
9,C=CCc1ccc(OCC(O)CN2CCN(Cc3ccc(Cl)cc3)CC2)c(OC)c1 (centres undefined),"inconclusive: 29.1 µM [cytotoxic, single point]"
10,CNc1nc(NN)nc(Nc2ccccc2)n1,"inconclusive: 23.1 µM [rising, single point]"
11,Cc1cc(=O)[nH]c(SCC(=O)c2ccc(O)c(O)c2)n1,inactive
12,CN(CC(=O)Nc1cccc(F)c1)C(=O)c1ccccc1OCCOc1ccccc1,"inconclusive: 9.2 µM [cytotoxic, partial curve]"
13,COc1ccc(-c2nnc(NC(=O)C3CCCN3S(=O)(=O)c3cccs3)o2)cc1 (centres undefined),"inconclusive: 29.1 µM [cytotoxic, single point]"
14,O=C(CN1C(=O)C2CCCCC2C1=O)Nc1ccccc1C(=O)O (centres undefined),"inconclusive: 20.6 µM [rising, single point]"
15,CCOc1ccc(NC(=O)CCc2c(C)nc3c(-c4ccccc4)c(C)nn3c2C)cc1,inactive
16,CCCOc1ccc(-c2c(C(=O)N/N=C(\C)COc3ccccc3)nnn2-c2nonc2N)cc1,inactive
17,COC(=O)C1CCN(C(=O)COC(=O)c2ccc(=O)n(Cc3ccccc3)n2)CC1,"inconclusive: 25.9 µM [rising, single point]"
18,COc1ccc(O)c(C(=O)c2coc(=N)c(C(=O)Nc3ccc(SC(F)F)cc3)c2)c1,active: 23.1 µM
19,CN1CCN(S(=O)(=O)c2cccc(C(=O)Nc3ccccc3N3CCCCC3)c2)CC1,"inconclusive: 6.51 µM [cytotoxic, partial curve]"
20,COc1cccc(C=Cc2nccc3ccccc23)c1OC,"inconclusive: 25.9 µM [cytotoxic, single point]"
21,Cc1cc(C)n(-c2nc(SCCN(C)C)c3c4c(sc3n2)CCCC4)n1,inactive
22,Cc1nn(-c2cccc(C(F)(F)F)c2)c(=O)c2ccccc12,"inconclusive: 29.1 µM [cytotoxic, single point]"
23,CCc1nc2ccc(C(=O)N(C)CCN(C)C)cn2c1N(C)Cc1cc2ccccc2s1,inactive
